These results are taken from publication PMC10656488.

Construct, isoform or probe ends are uncertain for at least one entry.

In this data set the test system is sXBP1 (spliced XBP1). Description: EMSA. The settings on record: supershifted band reported; fluorescence-based EMSA kit (Molecular Probes), 6% polyacrylamide gel; pH and temperature not given; recombinant protein. (In general: A gel shift assay detects complexes by their altered migration in electrophoresis.)

“GGGGAAGTTGTAATCACGTCCAGTTCCACTATAAGA (double strand) [SEPT2 EMSA WT probe]”: the binding result is listed as “binds”.
